Measured values taken from PMC8384837.
Changes are numbered by the printed parent chain. The list shows a part of the results. For some assays here: At the low end of the ranking, values are background and their order means little.

Tests used:
Conditions in all cases: yeast three-hybrid, YBZ-1, SC-Leu-His + 0.5 mM 3-AT, 4 days
[1] = target: T1, PUM1 PUF domain R3-AAE C935A + R936A + Q939E (UniProt Q14671)
T1 sequence: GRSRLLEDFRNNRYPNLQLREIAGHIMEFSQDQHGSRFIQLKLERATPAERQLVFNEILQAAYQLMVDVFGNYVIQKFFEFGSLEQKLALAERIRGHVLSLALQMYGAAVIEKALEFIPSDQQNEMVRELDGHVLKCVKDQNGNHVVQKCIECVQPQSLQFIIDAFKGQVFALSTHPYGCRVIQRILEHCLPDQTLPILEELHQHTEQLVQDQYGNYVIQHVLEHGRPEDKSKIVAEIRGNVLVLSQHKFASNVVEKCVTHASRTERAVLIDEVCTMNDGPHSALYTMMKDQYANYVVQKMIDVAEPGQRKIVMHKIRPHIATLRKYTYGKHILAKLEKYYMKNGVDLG

[2] = target: T2, PUM1 PUF domain R3-AIR C935A + R936I + Q939R (Homo sapiens) (UniProt Q14671)
T2 sequence: T1 sequence with A109I, E112R

[3] = target: T3, PUM1 PUF domain R3-CNE R936N + Q939E (UniProt Q14671)
T3 sequence: T1 sequence with A108C, A109N

[4] = target: T4, PUM1 PUF domain R3-DRE C935D + Q939E (UniProt Q14671)
T4 sequence: T1 sequence with A108D, A109R

[5] = target: T5, PUM1 PUF domain R3-DWE C935D + R936W + Q939E (UniProt Q14671)
T5 sequence: T1 sequence with A108D, A109W

[6] = target: T6, PUM1 PUF domain R3-FSR C935F + R936S + Q939R (Homo sapiens) (UniProt Q14671)
T6 sequence: T1 sequence with A108F, A109S, E112R

[7] = target: T7, PUM1 PUF domain R3-GND C935G + R936N + Q939D (UniProt Q14671)
T7 sequence: T1 sequence with A108G, A109N, E112D

[8] = target: T8, PUM1 PUF domain R3-GVE C935G + R936V + Q939E (UniProt Q14671)
T8 sequence: T1 sequence with A108G, A109V

[9] = target: T9, PUM1 PUF domain R3-IRV C935I + Q939V (Homo sapiens) (UniProt Q14671)
T9 sequence: T1 sequence with A108I, A109R, E112V

[10] = target: T10, PUM1 PUF domain R3-LSE C935L + R936S + Q939E (Homo sapiens) (UniProt Q14671)
T10 sequence: T1 sequence with A108L, A109S

[11] = target: T11, PUM1 PUF domain R3-QCD C935Q + R936C + Q939D (UniProt Q14671)
T11 sequence: T1 sequence with A108Q, A109C, E112D

[12] = target: T12, PUM1 PUF domain R3-SME C935S + R936M + Q939E (UniProt Q14671)
T12 sequence: T1 sequence with A108S, A109M

[13] = target: T13, PUM1 PUF domain R3-SVE C935S + R936V + Q939E (UniProt Q14671)
T13 sequence: T1 sequence with A108S, A109V

[14] = target: T14, PUM1 PUF domain R3-TME C935T + R936M + Q939E (UniProt Q14671)
T14 sequence: T1 sequence with A108T, A109M

[15] = target: T15, PUM1 PUF domain R3-TQE C935T + R936Q + Q939E (UniProt Q14671)
T15 sequence: T1 sequence with A108T, A109Q

[16] = target: T16, PUM1 PUF domain R3-VRA C935V + Q939A (Homo sapiens) (UniProt Q14671)
T16 sequence: T1 sequence with A108V, A109R, E112A

[17] = target: T17, PUM1 PUF domain R3-VRC C935V + Q939C (Homo sapiens) (UniProt Q14671)
T17 sequence: T1 sequence with A108V, A109R, E112C

[18] = target: T18, PUM1 PUF domain R3-VRE C935V + Q939E (UniProt Q14671)
T18 sequence: T1 sequence with A108V, A109R

[19] = target: T19, PUM1 PUF domain R3-VRY C935V + Q939Y (UniProt Q14671)
T19 sequence: T1 sequence with A108V, A109R, E112Y

[20] = target: T20, PUM1 PUF domain R3-YRL C935Y + Q939L (UniProt Q14671)
T20 sequence: T1 sequence with A108Y, A109R, E112L

Sequence: GGCUAGAACUAGUGGAUCCCCCGGCGCCCGGCGGCUCGAGCCCGGGUAAGUGUAAUUAGUCUGCAUGCCGCCGGGCGCCAUGCCUGCAGGUCGACUCUAGAAAACAUG
- binding signal (log2 enrichment (interaction score)) [1]: < -8.86
- binding signal (log2 enrichment (interaction score)) [2]: 0.73
- binding signal (log2 enrichment (interaction score)) [3]: -4.31
- binding signal (log2 enrichment (interaction score)) [4]: < -8.04
- binding signal (log2 enrichment (interaction score)) [5]: -4.78
- binding signal (log2 enrichment (interaction score)) [6]: 0.73
- binding signal (log2 enrichment (interaction score)) [7]: -3.69
- binding signal (log2 enrichment (interaction score)) [8]: < -10.5
- binding signal (log2 enrichment (interaction score)) [9]: 0.8
- binding signal (log2 enrichment (interaction score)) [10]: 0.38
- binding signal (log2 enrichment (interaction score)) [11]: < -6.61
- binding signal (log2 enrichment (interaction score)) [12]: < -8.15
- binding signal (log2 enrichment (interaction score)) [13]: < -7.9
- binding signal (log2 enrichment (interaction score)) [14]: < -6.56
- binding signal (log2 enrichment (interaction score)) [15]: < -7.55
- binding signal (log2 enrichment (interaction score)) [16]: 0.29
- binding signal (log2 enrichment (interaction score)) [17]: 1.07
- binding signal (log2 enrichment (interaction score)) [18]: < -7.02
- binding signal (log2 enrichment (interaction score)) [19]: < -8.77
- binding signal (log2 enrichment (interaction score)) [20]: < -8.19
